Construct, isoform or probe ends are uncertain for at least one entry. Results from cells or extracts need not show a direct contact. Weaker means in comparison with the reference protein, sequence or condition of that experiment. Where a protein sequence is shown, tags need not be part of it.
Molecular target: T1, ETV6 (TEL) (Homo sapiens) (UniProt P41212)
T1 sequence (looked up, limits assumed): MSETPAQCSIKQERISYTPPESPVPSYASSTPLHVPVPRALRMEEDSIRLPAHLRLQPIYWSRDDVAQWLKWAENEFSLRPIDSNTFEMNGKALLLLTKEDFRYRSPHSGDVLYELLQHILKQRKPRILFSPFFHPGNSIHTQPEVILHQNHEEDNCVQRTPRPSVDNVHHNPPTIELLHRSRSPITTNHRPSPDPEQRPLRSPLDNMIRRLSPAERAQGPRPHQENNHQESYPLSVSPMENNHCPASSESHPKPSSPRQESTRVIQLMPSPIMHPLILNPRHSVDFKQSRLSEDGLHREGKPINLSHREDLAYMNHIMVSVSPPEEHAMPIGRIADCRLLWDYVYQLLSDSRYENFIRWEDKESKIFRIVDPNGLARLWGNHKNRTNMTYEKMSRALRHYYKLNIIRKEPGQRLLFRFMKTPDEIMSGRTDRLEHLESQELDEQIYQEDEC
Assay: pull-down
Settings: protein in an extract, label: desthiobiotin

Sequence	binding result (scrambled control probe, ETV6 depleted relative to N1, same buffer)	binding result (SILAC MS, single candidate shared by HeLa and Raji, enriched over scrambled probe, 150 mM NaCl, 50 mM Tris pH 8, 0.5% NP-40, 10 mM MgCl2, 4 C)
TTGAGAGAGAGAGAGAGAGAGATCCCTGAGAGAGAGAGAGAGAGAGA / AATCTCTCTCTCTCTCTCTCTCAGGGATCTCTCTCTCTCTCTCTCTC [EMSA3-Scram1 concatemer]	binds more weakly	–
TTGAGAGGAAGGAAAGGAAGGATCCCTGAGAGGAAGGAAAGGAAGGA / AATCCTTCCTTTCCTTCCTCTCAGGGATCCTTCCTTTCCTTCCTCTC [EMSA3 concatemer (BV677278/READ1 segment, two copies)]	–	binds

Source: US20150299792
